Counter-ions that a name gives are not always drawn. At least one structure is not confirmed: it was looked up by name or label, or the drawing left a doubt.
System: PR8 strain influenza virus

CCCCOc1ccc(C(=O)CCN2CCCCC2)cc1 [Dyclonine . HCl, 4-n-butoxy-β-(1-piperidyl)-propiophenone hydrochloride]
changes in the viral envelope by electron microscopy: Changes in the viral envelope
rupturing of the viral envelope by electron microscopy: almost complete rupturing of the viral envelope and release of viral nucleoprotein strands
